Results on two substances are retold here after doi:10.1101/2024.02.05.578895.

Sequences of proteins named here, by UniProt entry; tags and fusion partners are left off.
UniProt P04198: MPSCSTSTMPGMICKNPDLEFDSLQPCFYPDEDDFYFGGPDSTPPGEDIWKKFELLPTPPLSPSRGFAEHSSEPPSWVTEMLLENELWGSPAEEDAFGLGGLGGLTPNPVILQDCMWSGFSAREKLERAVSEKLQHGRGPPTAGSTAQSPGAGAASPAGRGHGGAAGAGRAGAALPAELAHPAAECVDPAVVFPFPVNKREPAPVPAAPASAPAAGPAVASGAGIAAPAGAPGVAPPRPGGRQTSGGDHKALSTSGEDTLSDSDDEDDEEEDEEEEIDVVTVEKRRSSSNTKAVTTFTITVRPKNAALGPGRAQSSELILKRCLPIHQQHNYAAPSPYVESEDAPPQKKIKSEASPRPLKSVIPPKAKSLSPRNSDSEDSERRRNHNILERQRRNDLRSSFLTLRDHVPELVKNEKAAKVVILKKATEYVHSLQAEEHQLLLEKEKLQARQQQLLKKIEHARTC
UniProt P17844: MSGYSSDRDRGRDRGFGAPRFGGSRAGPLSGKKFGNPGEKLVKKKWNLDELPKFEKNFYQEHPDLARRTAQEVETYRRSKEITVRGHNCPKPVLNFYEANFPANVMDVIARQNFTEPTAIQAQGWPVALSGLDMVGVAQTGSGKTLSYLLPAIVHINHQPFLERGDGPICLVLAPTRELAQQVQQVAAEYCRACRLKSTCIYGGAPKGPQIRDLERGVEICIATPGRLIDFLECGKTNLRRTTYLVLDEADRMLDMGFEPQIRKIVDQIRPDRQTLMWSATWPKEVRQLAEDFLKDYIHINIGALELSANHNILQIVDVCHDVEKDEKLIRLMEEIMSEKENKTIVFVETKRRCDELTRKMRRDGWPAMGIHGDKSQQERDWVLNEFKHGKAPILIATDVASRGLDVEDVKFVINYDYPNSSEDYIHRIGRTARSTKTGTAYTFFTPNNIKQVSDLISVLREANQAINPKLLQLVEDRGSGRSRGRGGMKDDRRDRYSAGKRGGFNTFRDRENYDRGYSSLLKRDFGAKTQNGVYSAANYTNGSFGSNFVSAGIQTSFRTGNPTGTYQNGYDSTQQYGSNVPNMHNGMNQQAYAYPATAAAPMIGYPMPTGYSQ
UniProt Q92841: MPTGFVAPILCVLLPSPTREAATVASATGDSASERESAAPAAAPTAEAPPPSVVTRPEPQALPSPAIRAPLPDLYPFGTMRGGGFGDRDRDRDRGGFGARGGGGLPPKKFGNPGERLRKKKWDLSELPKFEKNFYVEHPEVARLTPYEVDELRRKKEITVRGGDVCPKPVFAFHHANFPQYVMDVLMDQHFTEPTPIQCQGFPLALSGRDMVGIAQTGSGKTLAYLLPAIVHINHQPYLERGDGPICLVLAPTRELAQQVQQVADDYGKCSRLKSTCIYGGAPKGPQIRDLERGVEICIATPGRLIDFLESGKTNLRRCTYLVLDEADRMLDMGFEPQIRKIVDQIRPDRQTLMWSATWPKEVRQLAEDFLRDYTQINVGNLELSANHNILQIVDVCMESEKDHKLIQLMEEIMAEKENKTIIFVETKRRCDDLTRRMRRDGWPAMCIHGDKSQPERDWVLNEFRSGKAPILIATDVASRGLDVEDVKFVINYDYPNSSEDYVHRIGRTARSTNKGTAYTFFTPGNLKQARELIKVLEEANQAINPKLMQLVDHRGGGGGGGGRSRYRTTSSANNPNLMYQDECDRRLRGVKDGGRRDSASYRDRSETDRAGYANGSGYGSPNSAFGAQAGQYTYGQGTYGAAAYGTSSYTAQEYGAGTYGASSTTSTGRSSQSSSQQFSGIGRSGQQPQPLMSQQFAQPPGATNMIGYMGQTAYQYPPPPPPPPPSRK

This assay addresses MYCN oncoprotein (human (endogenous in SK-N-BE(2))) (UniProt P04198). In words: co-IP.

These are yes or no findings as the source states them, for the method shown. Binding seen in cells or lysates may run through a third protein. Some binding calls cover weakened binding; strength is not graded here.

With “DEAD box helicase DDX5 (from UniProt P17844 1-614)”, the binding result is recorded as “no binding”.
Take “DEAD box ATP-dependent RNA helicase DDX17 (from UniProt Q92841 1-729)”: the binding entry is listed as “binds”.
